The source of these data is patent publication US20250235456A1, “METHODS OF USE FOR AZA-QUINAZOLINE COMPOUNDS” (Iambic Therapeutics, Inc., priority 2024, published 2025).

Chains of the proteins cited; added tags and fusions are not shown.
UniProt P11802, whole entry: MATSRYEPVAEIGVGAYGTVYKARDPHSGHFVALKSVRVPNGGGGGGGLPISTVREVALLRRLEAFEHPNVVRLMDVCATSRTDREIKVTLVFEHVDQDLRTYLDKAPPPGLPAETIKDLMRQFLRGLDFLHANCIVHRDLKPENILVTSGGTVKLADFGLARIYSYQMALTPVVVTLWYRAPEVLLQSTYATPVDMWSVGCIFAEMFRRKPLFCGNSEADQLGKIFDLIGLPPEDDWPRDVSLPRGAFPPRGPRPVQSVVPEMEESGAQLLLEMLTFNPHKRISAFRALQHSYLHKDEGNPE
UniProt P24385, whole entry partner: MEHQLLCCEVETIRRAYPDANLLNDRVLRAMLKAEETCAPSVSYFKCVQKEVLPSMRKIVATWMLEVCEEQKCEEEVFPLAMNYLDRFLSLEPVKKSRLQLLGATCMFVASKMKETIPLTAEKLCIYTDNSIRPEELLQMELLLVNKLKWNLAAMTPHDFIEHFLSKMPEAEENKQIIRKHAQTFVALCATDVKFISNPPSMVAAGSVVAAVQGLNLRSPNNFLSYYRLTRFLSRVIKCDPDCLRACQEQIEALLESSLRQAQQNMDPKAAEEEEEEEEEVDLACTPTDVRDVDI

In one assay the test system is MCF-7 cells. The assay is described as follows: Cell Growth Inhibition, MCF-7 (CellTiterGlo, 6 days). It is filed as cell-based. As to conditions: read-out: MCF-7 Cell IC50 nM. From the text: (§1) MCF-7 and OVCAR-3 cells were used to evaluate the anti-proliferation activity of the CDK inhibitors. MCF-7 (ATCC, HTB-22) cells are epithelial cells from a patient with ER+ metastatic adenocarcinoma. OVCAR-3 (ATCC, HTB-161) cells were derived from malignant ascites of a patient with ovarian cancer and are known to have CCNE1 amplification. Both cell lines were maintained in RPMI media supplemented with 10% fetal bovine serum. For cell growth inhibition assay, CDK inhibitors in DMSO solution were dispensed with either Echo 655 (Beckman Coulter) or Tecan D300e (TIP) into 384-well plates (Corning #3765) and the 384-well plates were UV-sterilized prior to the assay. The inhibitors were typically tested in the 10-10,000 nM concentration range with half-log serial dilutions. MCF-7 or OVCAR-3 (500 cells/30 μL/well) were added to each well using Multidrop Combi (ThermoFisher) using standard cassettes. The assay plates with cells were cultured at 37° C., 5% CO2 for 6 days. At the end of the 6-day treatment, 30 μL of CellTiterGlo 2.0 (Promega) was added to each well and the luminescent signal was read using CLARIOstar plus (BMG). The percentage of cell growth inhibition (% CGI) was calculated using the following formula % CGI=100-100×luminescencesample/luminescenecontrol. The half maximal inhibitory concentration (IC50) was determined by nonlinear curve fitting (four parameters, variable slope).

Assay [1] concerns the target CDK2/Cyclin E1 full length (Homo sapiens (Human), UniProt P24941). The assay can be described thus: CDK2/Cyclin E1 Full length ADP-Glo Kinase Assay. As to conditions: read-out: CDK2/CyclinE1 IC50 nM. As to the method: CDK2/Cyclin E1 Full length ADP-Glo Kinase Assay
The purpose of CDK2/Cyclin El assay is to evaluate the inhibition (% inhibition and IC50 values) of small molecule inhibitors by using a Luminescent based ADP-Glo assay. CDK2/Cyclin El full length catalyzes the production of ADP from ATP. ADP-Glo assay monitors ADP producing biochemical reactions. ADP-Glo is performed in 2 steps upon completion of kinase reaction: a combined termination of kinase reaction and depletion of remaining ATP in the first step, and conversion of generated ADP to ATP and the newly produced ATP to light output using luciferase/luciferin reaction in the second step. The luminescent signal generated is proportional to the ADP concentration produced and is correlated with the kinase activity. CDK2/Cyclin E1 was purchased from Eurofins (Cat 14-475M). Typical reaction solutions (10 uL final reaction volume) contained 2% DMSO (±inhibitor), 10 mM MgCI2, 1 mM EGTA, 0.05% BSA, 2 mM DTT, 20 uM ATP (ATP Km=64.78 uM), 0.01% Brig-35, 0.75 uM substrate, and 0.328 nM wild-type full length CDK2/Cyclin El enzyme complex in 50 mM HEPES buffer at pH 7.5. […] Samples were incubated for 40 minutes, after which plate well luminescence was measured on a Envision microplate reader. […]

A further assay concerns the target CDK4/Cyclin D1 (Homo sapiens (Human), UniProt P11802). The assay is described as follows: CDK4/Cyclin D1 CHEF Assay. As to conditions: read-out: CDK4/CyclinD1 AQT IC50 nM. An excerpt: CDK4/Cyclin D1 CHEF Assay
The purpose of CDK4/Cyclin Dl assay is to evaluate the inhibition (% inhibition and IC50 values) of small molecule inhibitors by using a Chelation-Enhance Fluorescence (CHEF) assay. In a CHEF assay, phosphorylation of a peptide substrate results in proportional increase in fluorescence. CHEF kinase assay use peptide substrates containing a synthetic alpha-amino acid with a side chain bearing an 8-hydroxyquinoline derivative (sulfonamido-oxide, Sox). Upon phosphorylation of a nearby serine, threonine or tyrosine and in the presence of Mg(II), the spectral properties of the Sox residue are altered, emitting 485 nm wavelength light when excited with a 360 nm wavelength light source. CDK4/Cyclin D1 catalyzes the phosphoryl transfer to the SOX-labeled substrate peptide AQT0258 from Assayquant Technologies. Typical reaction solutions contained 2% DMSO (+/−inhibitor), 10 mM MgCl2, 1 mM DTT, 200 uM ATP (ATP Km=195.2 uM), 0.012% Brig-35, 10 uM AQT0258 peptide, 0.02% BSA, 1% Glycerol, 0.55 mM EGTA, 2.5 nM CDK4/Cyclin D1 in 54 mM HEPES buffer at pH 7.5. The reaction was initiated with the addition of substrate solution, following a 30-minute pre-incubation of enzyme and inhibitor at 22° C. in the reaction mix. Reactions were allowed to proceed for 3 hrs at 22° C., followed by fluorescence read of the reaction. […]

The subject of the next assay is OVCAR-3 cells. The assay is described as follows: Cell Growth Inhibition, OVCAR-3 (CellTiterGlo, 6 days). It is filed as cell-based. The settings on record: read-out: OVCAR-3 Cell IC50 nM.
Source text: as §1

The structures given here were assigned with low confidence; some may be wrong. Where only a bound is given, the exact number is not on record here.

With `Cc1cc2cnc(NC3CC4CC3CN4C)nc2c(N2CCC3(C2)CC3(F)F)n1` (stereo not shown), the IC50 in the assay on MCF-7 cells was 500 to 2000 nM; in assay [1], 500 to 2000 nM; at CDK4/Cyclin D1, less than 200 nM; with OVCAR-3 cells it was 500 to 2000 nM.
